In patent US7115379:
These are yes or no findings as the source states them, for the method shown.

Columns and labels:
Assay in all cases: binding assays with known chemokine receptors
Duffy antigen receptor = target: T1, Duffy antigen receptor (UniProt Q16570)
T1 sequence (looked up): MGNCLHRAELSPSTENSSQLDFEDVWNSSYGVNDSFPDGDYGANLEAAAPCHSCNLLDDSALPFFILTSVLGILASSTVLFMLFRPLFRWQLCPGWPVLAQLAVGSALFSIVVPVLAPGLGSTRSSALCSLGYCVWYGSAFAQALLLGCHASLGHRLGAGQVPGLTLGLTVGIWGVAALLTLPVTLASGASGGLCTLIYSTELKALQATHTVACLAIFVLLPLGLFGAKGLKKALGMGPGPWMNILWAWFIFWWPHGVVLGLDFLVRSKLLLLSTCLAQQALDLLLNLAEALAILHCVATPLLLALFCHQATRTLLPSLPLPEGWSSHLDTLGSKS

chemokine receptor CCR 1 = target: T2, chemokine receptor CCR 1 (UniProt P32246)
T2 sequence (looked up): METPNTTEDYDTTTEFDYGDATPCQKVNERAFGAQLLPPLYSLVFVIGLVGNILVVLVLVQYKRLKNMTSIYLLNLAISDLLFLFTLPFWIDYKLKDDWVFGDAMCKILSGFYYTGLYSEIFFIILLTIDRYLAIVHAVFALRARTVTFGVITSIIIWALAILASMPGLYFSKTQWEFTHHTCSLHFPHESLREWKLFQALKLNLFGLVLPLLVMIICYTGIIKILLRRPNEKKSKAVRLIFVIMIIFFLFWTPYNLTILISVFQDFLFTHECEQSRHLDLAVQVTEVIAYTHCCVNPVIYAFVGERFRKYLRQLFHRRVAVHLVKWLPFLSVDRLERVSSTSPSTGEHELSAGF

chemokine receptor CCR 3 = target: T3, chemokine receptor CCR 3 (UniProt P51677)
T3 sequence (looked up): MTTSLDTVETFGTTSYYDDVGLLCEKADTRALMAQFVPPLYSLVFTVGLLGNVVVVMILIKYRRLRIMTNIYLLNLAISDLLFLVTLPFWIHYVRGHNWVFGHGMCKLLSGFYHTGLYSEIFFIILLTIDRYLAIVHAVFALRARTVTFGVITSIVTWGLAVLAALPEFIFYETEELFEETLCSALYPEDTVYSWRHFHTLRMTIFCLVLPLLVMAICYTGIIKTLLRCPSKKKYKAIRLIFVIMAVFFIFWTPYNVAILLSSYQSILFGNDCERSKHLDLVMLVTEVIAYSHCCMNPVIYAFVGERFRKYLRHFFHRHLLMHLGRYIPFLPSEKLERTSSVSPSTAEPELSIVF

chemokine receptor CCR 4 = target: T4, chemokine receptor CCR 4 (UniProt P51679)
T4 sequence (looked up): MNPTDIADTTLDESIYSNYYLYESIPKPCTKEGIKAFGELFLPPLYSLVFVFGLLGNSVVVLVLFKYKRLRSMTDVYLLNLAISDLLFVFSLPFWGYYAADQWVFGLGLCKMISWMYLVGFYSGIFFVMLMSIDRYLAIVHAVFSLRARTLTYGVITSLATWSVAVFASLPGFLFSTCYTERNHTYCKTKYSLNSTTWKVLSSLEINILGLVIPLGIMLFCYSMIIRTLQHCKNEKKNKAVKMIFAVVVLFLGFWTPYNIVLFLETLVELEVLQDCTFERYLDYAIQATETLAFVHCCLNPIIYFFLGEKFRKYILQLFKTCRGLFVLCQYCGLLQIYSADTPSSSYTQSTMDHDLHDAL

binding (Duffy antigen receptor): no binding
binding (chemokine receptor CCR 1): no binding
binding (chemokine receptor CCR 3): no binding
binding (chemokine receptor CCR 4): no binding
Substance: CX3Ckine (ligand)
